Assay results from US5449787A, “N,N'-disubstituted amide derivatives” (Kyorin Pharmaceutical Co., Ltd., priority 1992, dated 1995).
Structures can show the parent of a compound that is named as a salt. At least one compound was matched to its structure with a doubt left.

Target: T1, 5-HT3 receptor (Rattus norvegicus, UniProt P35563)
T1 sequence (P35563 24-483): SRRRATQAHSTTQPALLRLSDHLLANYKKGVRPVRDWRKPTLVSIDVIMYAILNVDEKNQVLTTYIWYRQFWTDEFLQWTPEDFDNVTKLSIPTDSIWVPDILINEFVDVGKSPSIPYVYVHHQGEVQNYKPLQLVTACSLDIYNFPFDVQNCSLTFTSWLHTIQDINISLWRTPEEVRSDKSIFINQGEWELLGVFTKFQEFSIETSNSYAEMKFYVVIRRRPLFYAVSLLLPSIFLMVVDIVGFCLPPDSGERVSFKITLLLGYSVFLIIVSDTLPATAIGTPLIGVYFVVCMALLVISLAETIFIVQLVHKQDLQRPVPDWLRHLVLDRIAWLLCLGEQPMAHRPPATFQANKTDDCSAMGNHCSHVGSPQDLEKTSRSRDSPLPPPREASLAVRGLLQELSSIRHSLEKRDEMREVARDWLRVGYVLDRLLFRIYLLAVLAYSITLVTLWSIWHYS
Assay: Antagonistic action on von Bezold Jarisch reflex
Format: in vivo
Parameters: Under the anesthetization of rat with urethane/chloralose; from tissue; host or cells: whole anaesthetized rat (in vivo); receptor endogenous, by own knowledge on vagal afferents
Conditions: urethane/chloralose-anesthetized rat, 5-HT 1 mg/kg intravenous; dose of test compound not given
Source text: The compound of the present invention has an antagonistic action to 5-HT receptor, in particular, to 5-HT3 receptor. Affinity of the compound of the present invention to 5-HT3 receptor is shown by a receptor-binding assay [refer to Gavin J. Kilpatrick et al, Eur. J. Pharmacol., 159, 157 (1989)] using [^3 H]GR65630 for a tracer legend. Moreover, the antagonistic action to 5-HT3 receptor is shown through inhibition of von Bezold Jarisch reflex caused by intravenously administering 5-HT to rat.
The antagonistic action of testing compounds to 5-HT3 was assayed according to the method described in Naunyn-Schmiedeberg's Arch. Pharmacol., vol. 326, 36 (1984).
Under the anesthetization of rat with urethane/chloralose, the blood pressure was monitored with hemodynamometer frown carotid arteries and the heart rate was monitored from electrocardiogram.

## CN(C)C1CCN(C(=O)c2nn(C)c3ccccc23)C1 (stereo not shown) [Example 11, 3-Dimethylamino-(1-methylindazol-3-ylcarbonyl)pyrrolidine hydrochloride]
  inhibition of reflex bradycardia caused by intravenous 5-HT (von Bezold Jarisch reflex): inhibited the reflex bradycardia
